# PubChem BioAssay AID540256 (National Center for Advancing Translational Sciences (NCATS), 2011)
# Hit rate of the full screen: of about 300,000 compounds, about 3,700 (1.2%) were called active. The inconclusive results got no clear call from the source; some entries with a clear call stand among them for comparison. Calls follow the shape of the full dose curve; tested in HEK293 cells. Potencies of inconclusive entries are doubtful fits and often do not repeat.
# Assay: qHTS for Inhibitors of binding or entry into cells for Lassa Virus; also: nearly all actives have a fitted effect of over 50% in size
# Settings: Lassa virus pseudotype entry inhibition, cell reporter; series mostly up to 37.9 µM
# Potency is read from the fitted curve at half-maximal effect.
row,Compound,Potency
1,COc1cc(/C=C/C(=O)c2ccc(NS(=O)(=O)c3ccc(C)cc3)cc2)ccc1OC(F)F,"inconclusive: 29.1 µM [inhibitor, single point]"
2,CCC1CN(C(=O)N2CCC(C(=O)NCCc3ccc(Cl)cc3)CC2)c2ccccc2O1 (centres undefined),inactive
3,CCOC(=O)c1ccc(N2C(=O)c3n[nH]c(C)c3C2c2ccco2)cc1 (centres undefined),"inconclusive: 7.94 µM [inhibitor, partial curve, poor fit]"
4,CCN(CC)c1ccc(NS(=O)(=O)c2ccc(-c3cnc(C4CC4)o3)cc2)c(C)c1,"inconclusive: 3.16 µM [inhibitor, partial curve]"
5,Cc1nnc(-c2ccccc2)c(=O)n1/N=C/c1c(O)ccc2ccccc12,"inconclusive: 17.8 µM [inhibitor, partial curve, poor fit]"
6,O=C(NCc1ccccc1)c1cccc(NC(=O)C2CCC2)c1,"inconclusive: 17.7 µM [inhibitor, partial curve, poor fit]"
7,C=CCSc1nnc(CCCCCN2C(=O)c3cccc4cccc(c34)C2=O)o1,"inconclusive: 35.5 µM [inhibitor, single point]"
8,CCOc1ccc(S(=O)(=O)N2CCN(Cc3ccccc3)CC2)cc1,"inconclusive: 11.2 µM [inhibitor, partial curve, poor fit]"
9,COc1ccc(S(=O)(=O)n2nc(C)c(S(=O)(=O)N3CCC(C)CC3)c2C)cc1C,"inconclusive: 35.5 µM [activator, single point]"
10,Cc1cc(C(=O)CN2C(=O)NC3(CCCc4sccc43)C2=O)c(C)n1-c1ccc(Cl)cc1 (centres undefined),"inconclusive: 32.6 µM [inhibitor, single point]"
11,COc1ccc(CCNS(=O)(=O)c2ccc3c(c2)CC(C)N3C(=O)C2CCC2)cc1OC (centres undefined),inactive
12,COc1ccc(CCNC(=O)CCCn2c(=O)c3ccccc3n(Cc3cccc(Cl)c3)c2=O)cc1OC,inactive
13,CCOc1ccc(N(C(=O)CC(C)C)S(=O)(=O)c2ccc3c(c2)oc(=O)n3C)cc1,"inconclusive: 2.82 µM [inhibitor, full curve, poor fit]"
14,COCCNc1nnc(SCC(=O)Nc2sc3c(c2C(=O)c2ccccc2)CCCC3)s1,"inconclusive: 16.4 µM [inhibitor, partial curve, poor fit]"
15,COCCOC(=O)c1c(C)n(S(=O)(=O)c2ccc(C)cc2)c2ccc(NS(=O)(=O)c3ccc(C)cc3)cc12,"inconclusive: 31.6 µM [inhibitor, partial curve, poor fit]"
16,O=C(NC1CCCC1)c1cc(-c2cccc(Cl)c2)on1,"inconclusive: 35.5 µM [inhibitor, single point]"
17,CCOC(=O)c1cc2c(=O)n3ccccc3nc2n(Cc2ccco2)c1=NC(=O)c1cccnc1,"inconclusive: 20.6 µM [inhibitor, single point]"
18,COc1cccc(C(c2sc3nc(-c4ccco4)nn3c2O)N2CCC(O)CC2)c1 (centres undefined),inactive
19,COCCCNC(=O)c1ccc(NS(C)(=O)=O)cc1,"inconclusive: 15.8 µM [activator, partial curve, poor fit]"
20,COc1cccc(C=NNc2nnc(NN=Cc3cccc(OC)c3OC)c3ccccc23)c1OC,"inconclusive: 22.4 µM [inhibitor, single point]"
21,O=S(=O)(NCCc1nnc2ccc(SCc3ccc(Cl)cc3Cl)nn12)c1ccccc1,"inconclusive: 0.562 µM [inhibitor, full curve, poor fit]"
22,Cn1c(NC(=O)C[n+]2cc(-c3ccccc3)n3c2CCC3)cc(=O)n(C)c1=O,inactive

row,Compound,Potency
1,CCOc1ccc(CCNC(=O)c2ccc3c(Cl)c4c(nc3c2)CCCC4)cc1,"inconclusive: 5.62 µM [inhibitor, full curve, poor fit]"
2,N#C/C(=C/c1ccc(N2CCCCC2)o1)C(=O)NCCc1c[nH]c2ccccc12,active: 7.08 µM
3,COc1ccc(NC(=S)c2ccccc2)cc1,"inconclusive: 3.55 µM [activator, single point]"
4,CN1N=C(C(=O)N2CCc3c([nH]c4ccccc34)C2c2ccccc2Cl)CCC1=O (centres undefined),"inconclusive: 35.5 µM [inhibitor, single point]"
5,CCOc1cc(C2NN=C(c3ccc(C)cc3)S2)ccc1O (centres undefined),"inconclusive: 35.5 µM [inhibitor, partial curve, poor fit]"
6,CCOc1ccc(C(=O)N/N=C/c2ccccc2[N+](=O)[O-])cc1,"inconclusive: 16.4 µM [inhibitor, single point]"
7,CCC1CCCCN1C(=O)CCc1nnc(Cc2cc(OC)ccc2OC)o1 (centres undefined),inactive
8,Cc1ccc(C(=O)N/N=C2\CCc3ccccc32)c(C)c1,"inconclusive: 11.2 µM [inhibitor, single point]"
9,O=C(N/N=C/c1c[nH]c2ccccc12)c1ccccc1O,"inconclusive: 14.1 µM [activator, single point]"
10,N#CC1=C(SCC(=O)c2ccc(Cl)cc2)NC2=C(C(=O)CCC2)C1c1ccco1 (centres undefined),"inconclusive: 7.08 µM [inhibitor, partial curve, poor fit]"
11,COc1ccc(NC(=O)CN2CCCN(S(=O)(=O)c3ccc(F)cc3)CC2)c(OC)c1,"inconclusive: 11.2 µM [inhibitor, partial curve, poor fit]"
12,O=C(Cc1cccc2ccccc12)Nc1cc(Cl)ccc1C(=O)O,inactive
13,CC(=O)Nc1nc2c(C)cc(NC(=O)C3CCCCC3)cc2s1,"inconclusive: 12.6 µM [activator, single point]"
14,CC(C)Cn1cc(NC(=O)N2CCN(c3ccccc3F)CC2)c2ccccc2c1=O,inactive
15,CCOC(=O)C1CCCCN1C(=O)c1oc2c(Cl)cc(C)cc2c1C (centres undefined),"inconclusive: 7.08 µM [inhibitor, partial curve, poor fit]"
16,O=c1c2ccccc2nnn1Cc1ccc(F)cc1,"inconclusive: 17.8 µM [activator, single point]"
17,COc1ccc(C2=NOC(C(=O)Nc3cccc(O)c3)C2)cc1 (centres undefined),"inconclusive: 0.562 µM [inhibitor, partial curve, poor fit]"
18,CCOC(=O)CNC(=S)N(Cc1cccs1)C1CCCC1,inactive
19,Cc1ccc(S(=O)(=O)N2CCOCC2)cc1C(=O)NCc1ccco1,"inconclusive: 10.3 µM [activator, partial curve, poor fit]"
20,O=C(Cn1c(-c2cscn2)nc2ccccc21)Nc1cc(F)ccc1F,"inconclusive: 5.8 µM [activator, partial curve]"
21,CCOC(=O)CC(NC(=O)N1CCC(CN2CCC(C)CC2)CC1)c1ccccc1 (centres undefined),"inconclusive: 35.5 µM [activator, single point]"
22,Cc1cc(C)nc(NS(=O)(=O)c2ccc(NC(=O)COc3ccc(C(C)(C)C)cc3)cc2)n1,inactive

row,Compound,Potency
1,Nc1c(Cl)ncnc1N/N=C/c1ccc2ccccc2n1,"inconclusive: 11.2 µM [inhibitor, partial curve]"
2,CCCCN(CC)Cc1ccc(CNC(=O)Nc2ccccc2)o1,inactive
3,O=C(Nc1ccc(Cl)cn1)c1ccc(COCC(F)(F)C(F)F)o1,"inconclusive: 3.26 µM [activator, full curve]"
4,O=C(COC(=O)CNC(=O)c1ccc(Cl)c([N+](=O)[O-])c1)NNC(=O)c1cccs1,"inconclusive: 35.5 µM [activator, single point]"
5,Cc1cc(SC(C)C(=O)Nc2c(C)n(C)n(-c3ccccc3)c2=O)nc2ccccc12 (centres undefined),inactive
6,CCCn1ccc2c(OCC(=O)NCc3ccccc3Cl)cccc2c1=O,"inconclusive: 1 µM [inhibitor, full curve, poor fit]"
7,O=C(CSc1nccn1Cc1ccccc1)NCc1ccccc1Cl,inactive
8,CCOc1ccc(C2=CSC3=NCCN23)cc1[N+](=O)[O-],"inconclusive: 22.4 µM [activator, single point]"
9,COc1cccc(/C=N/Nc2ncnc(N)c2[N+](=O)[O-])c1OC,active: 8.2 µM
10,Cc1ccc2nc(SCC(=O)Nc3ccccc3N3CCOCC3)c(C#N)cc2c1,"inconclusive: 0.794 µM [inhibitor, partial curve, poor fit]"
11,O=C(Nc1ccccc1C(=O)OCc1cc(=O)n2c3c(sc2n1)CCCC3)c1cccc(Cl)c1,inactive
12,CCc1cc(C(=O)Nc2ccc(C)cc2Br)cs1,"inconclusive: 13 µM [inhibitor, single point]"
13,COc1ccc(CCN(C)C(=S)NC(=O)c2ccc(F)cc2Cl)cc1OC,"inconclusive: 20 µM [inhibitor, single point]"
14,CC(C)C(=O)NC(c1ccccc1)c1cc([N+](=O)[O-])c2cccnc2c1O (centres undefined),"inconclusive: 35.5 µM [inhibitor, single point]"
15,c1ccc(-c2csc(N3CCOCC3)n2)cc1,"inconclusive: 20.6 µM [activator, partial curve, poor fit]"
16,O=[N+]([O-])c1cc(C(F)(F)F)cc([N+](=O)[O-])c1NCCNC(=S)Nc1ccc(Cl)c(Cl)c1,"inconclusive: 35.5 µM [inhibitor, single point]"
17,O=c1ccn(-c2cccc(C(F)(F)F)c2)nc1-c1ccn(-c2ccccc2)n1,inactive
18,c1ccc(-c2nnc(N3CCN(c4ccccn4)CC3)c3ccccc23)cc1,"inconclusive: 29.1 µM [inhibitor, single point]"
19,CCN1CCN(C(c2cccc(F)c2)c2c(O)cc(C)n(Cc3ccco3)c2=O)CC1 (centres undefined),"inconclusive: 3.55 µM [inhibitor, partial curve, poor fit]"
20,O=C1CC(c2ccccc2)Cc2[nH]c(=O)c(-c3nc(-c4ccc(Cl)cc4)cs3)cc21 (centres undefined),inactive

# Quoted at random: 3 entries already listed, in no set order.
row,Compound,Potency
6,O=C(NCc1ccccc1)c1cccc(NC(=O)C2CCC2)c1,"inconclusive: 17.7 µM [inhibitor, partial curve, poor fit]"
3,CCOC(=O)c1ccc(N2C(=O)c3n[nH]c(C)c3C2c2ccco2)cc1 (centres undefined),"inconclusive: 7.94 µM [inhibitor, partial curve, poor fit]"
9,COc1cccc(/C=N/Nc2ncnc(N)c2[N+](=O)[O-])c1OC,active: 8.2 µM
